{"source": "PubChem BioAssay AID504786 (Drosophila RNAi Screening Center, 2011)", "test": "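Positive regulators of HIF-driven reporter output in Drosophila cells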 (primary screen)", "cell system": "Drosophila S2 cells with a stable HIF luciferase reporter", "knock-down reagent": "long dsRNA against Drosophila genes, about 0.2 µg dsRNA per well of a 384-well plate", "duration": "three days of knock-down, then 20 h of DFO before reading", "conditions": "desferrioxamine (DFO) at 100 µM, an iron chelator that mimics hypoxia, for 20 h", "read-out": "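Firefly luciferase driven by the mouse ldh-a hypoxia-response element, measured after 20 h of 100 µM DFO; z-scores per plate, higher means more signal lost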", "reading the numbers": "z-score: higher = stronger loss of HIF reporter signal", "note": "The screen tested about 21,000 reagents; this is a random part of those that have a named target and a result. 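Primary screen; positive scores mean lost reporter signal, so the sign may be inverted from the usual convention.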 The numbers tell different reagents against one gene apart. Not all columns of the deposit are shown."}
The first 2 entries, ahead of the listing:
{"gene knocked down": "CG3927", "reagent": 1, "z-score, replicate 1": -0.3}
{"gene knocked down": "pdm2 (POU domain protein 2)", "reagent": 1, "z-score, replicate 1": -0.3}

The list itself, from the start:
{"gene knocked down": "CG3927", "reagent": 1, "z-score, replicate 1": -0.3}
{"gene knocked down": "pdm2 (POU domain protein 2)", "reagent": 1, "z-score, replicate 1": -0.3}
{"gene knocked down": "pdm2 (POU domain protein 2)", "reagent": 2, "z-score, replicate 1": -0.3}
{"gene knocked down": "pdm2 (POU domain protein 2)", "reagent": 3, "z-score, replicate 1": -0.3}
{"gene knocked down": "CG8586", "reagent": 1, "z-score, replicate 1": -0.3}
{"gene knocked down": "CG17154", "reagent": 1, "z-score, replicate 1": -0.3}
{"gene knocked down": "Polr1C (RNA polymerase I and III subunit C)", "reagent": 1, "z-score, replicate 1": 0.6}
{"gene knocked down": "CG13829", "reagent": 1, "z-score, replicate 1": -0.2}
{"gene knocked down": "CG10469", "reagent": 1, "z-score, replicate 1": 0.1}
{"gene knocked down": "Gr39b (Gustatory receptor 39b)", "reagent": 1, "z-score, replicate 1": -0.1}
{"gene knocked down": "Slob (Slowpoke binding protein)", "reagent": 1, "z-score, replicate 1": -0.1}
{"gene knocked down": "CG12910", "reagent": 1, "z-score, replicate 1": -0.3}
{"gene knocked down": "CG40198", "reagent": 1, "z-score, replicate 1": 0}
{"gene knocked down": "CG34047 (retired record)", "reagent": 1, "z-score, replicate 1": -0.5}
{"gene knocked down": "dpp (decapentaplegic)", "reagent": 1, "z-score, replicate 1": -0.2}
{"gene knocked down": "dpp (decapentaplegic)", "reagent": 2, "z-score, replicate 1": 0.2}
{"gene knocked down": "dpp (decapentaplegic)", "reagent": 3, "z-score, replicate 1": -0.3}
